We go through 33 targets from the supplement of paper PMC12067093, “Discovery and optimisation of a covalent ligand for TRIM25 and its application to targeted protein ubiquitination” (Chemical Science, 2025).

Sequences of proteins named here, by UniProt entry; tags and fusion partners are left off. A change or cut given only in a name is not applied to a line headed by its entry.
UniProt O75152: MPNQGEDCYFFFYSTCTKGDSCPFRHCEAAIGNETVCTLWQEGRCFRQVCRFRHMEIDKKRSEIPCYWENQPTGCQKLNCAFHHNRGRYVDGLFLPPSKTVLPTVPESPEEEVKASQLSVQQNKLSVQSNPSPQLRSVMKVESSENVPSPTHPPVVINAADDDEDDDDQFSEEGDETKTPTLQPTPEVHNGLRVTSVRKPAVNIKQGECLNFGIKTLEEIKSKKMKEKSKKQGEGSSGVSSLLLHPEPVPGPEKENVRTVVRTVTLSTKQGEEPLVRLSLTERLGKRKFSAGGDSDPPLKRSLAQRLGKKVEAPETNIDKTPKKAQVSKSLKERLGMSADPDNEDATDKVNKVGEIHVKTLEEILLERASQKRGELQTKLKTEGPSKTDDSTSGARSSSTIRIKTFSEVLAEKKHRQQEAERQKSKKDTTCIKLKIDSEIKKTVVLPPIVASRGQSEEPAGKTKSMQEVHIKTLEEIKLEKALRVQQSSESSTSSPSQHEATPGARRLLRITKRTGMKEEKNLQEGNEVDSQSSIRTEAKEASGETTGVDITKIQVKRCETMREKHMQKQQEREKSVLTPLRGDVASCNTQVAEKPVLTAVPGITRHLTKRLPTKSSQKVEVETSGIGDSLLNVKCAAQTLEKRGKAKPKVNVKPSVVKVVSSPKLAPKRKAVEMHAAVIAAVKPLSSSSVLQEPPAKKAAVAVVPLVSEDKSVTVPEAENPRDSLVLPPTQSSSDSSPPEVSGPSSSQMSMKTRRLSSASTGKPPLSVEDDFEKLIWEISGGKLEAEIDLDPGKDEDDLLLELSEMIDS
UniProt Q8TCF1: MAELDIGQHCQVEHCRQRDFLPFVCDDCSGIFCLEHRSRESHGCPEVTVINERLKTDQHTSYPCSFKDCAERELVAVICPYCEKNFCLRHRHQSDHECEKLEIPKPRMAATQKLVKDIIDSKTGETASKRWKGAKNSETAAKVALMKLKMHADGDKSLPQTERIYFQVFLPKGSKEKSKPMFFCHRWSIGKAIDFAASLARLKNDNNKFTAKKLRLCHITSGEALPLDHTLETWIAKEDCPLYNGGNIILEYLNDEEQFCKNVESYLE
UniProt P62258: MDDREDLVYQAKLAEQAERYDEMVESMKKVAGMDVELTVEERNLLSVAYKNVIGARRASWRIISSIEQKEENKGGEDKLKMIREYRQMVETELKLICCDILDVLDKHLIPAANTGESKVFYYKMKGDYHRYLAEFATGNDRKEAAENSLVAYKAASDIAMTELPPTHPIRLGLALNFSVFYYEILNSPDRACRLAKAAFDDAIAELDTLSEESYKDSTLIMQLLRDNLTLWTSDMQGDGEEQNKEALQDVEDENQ
UniProt O43542: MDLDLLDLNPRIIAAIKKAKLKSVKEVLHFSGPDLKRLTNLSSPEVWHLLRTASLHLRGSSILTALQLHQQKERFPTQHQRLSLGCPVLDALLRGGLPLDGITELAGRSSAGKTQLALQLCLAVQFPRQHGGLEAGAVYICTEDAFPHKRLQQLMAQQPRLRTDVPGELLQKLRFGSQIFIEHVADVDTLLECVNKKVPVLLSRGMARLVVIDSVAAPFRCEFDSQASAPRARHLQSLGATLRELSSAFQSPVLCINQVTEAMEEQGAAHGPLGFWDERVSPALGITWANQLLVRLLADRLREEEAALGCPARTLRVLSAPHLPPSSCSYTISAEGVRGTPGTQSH
UniProt A8MPS7: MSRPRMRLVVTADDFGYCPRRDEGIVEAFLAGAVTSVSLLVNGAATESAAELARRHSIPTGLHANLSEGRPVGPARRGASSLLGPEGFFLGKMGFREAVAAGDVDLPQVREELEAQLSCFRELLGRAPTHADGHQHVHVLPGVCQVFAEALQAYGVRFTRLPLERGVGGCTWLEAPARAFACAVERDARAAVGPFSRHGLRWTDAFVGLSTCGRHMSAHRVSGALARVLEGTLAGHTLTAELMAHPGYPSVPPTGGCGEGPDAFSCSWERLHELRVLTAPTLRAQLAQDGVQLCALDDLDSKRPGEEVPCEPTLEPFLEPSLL
UniProt Q9H0D6: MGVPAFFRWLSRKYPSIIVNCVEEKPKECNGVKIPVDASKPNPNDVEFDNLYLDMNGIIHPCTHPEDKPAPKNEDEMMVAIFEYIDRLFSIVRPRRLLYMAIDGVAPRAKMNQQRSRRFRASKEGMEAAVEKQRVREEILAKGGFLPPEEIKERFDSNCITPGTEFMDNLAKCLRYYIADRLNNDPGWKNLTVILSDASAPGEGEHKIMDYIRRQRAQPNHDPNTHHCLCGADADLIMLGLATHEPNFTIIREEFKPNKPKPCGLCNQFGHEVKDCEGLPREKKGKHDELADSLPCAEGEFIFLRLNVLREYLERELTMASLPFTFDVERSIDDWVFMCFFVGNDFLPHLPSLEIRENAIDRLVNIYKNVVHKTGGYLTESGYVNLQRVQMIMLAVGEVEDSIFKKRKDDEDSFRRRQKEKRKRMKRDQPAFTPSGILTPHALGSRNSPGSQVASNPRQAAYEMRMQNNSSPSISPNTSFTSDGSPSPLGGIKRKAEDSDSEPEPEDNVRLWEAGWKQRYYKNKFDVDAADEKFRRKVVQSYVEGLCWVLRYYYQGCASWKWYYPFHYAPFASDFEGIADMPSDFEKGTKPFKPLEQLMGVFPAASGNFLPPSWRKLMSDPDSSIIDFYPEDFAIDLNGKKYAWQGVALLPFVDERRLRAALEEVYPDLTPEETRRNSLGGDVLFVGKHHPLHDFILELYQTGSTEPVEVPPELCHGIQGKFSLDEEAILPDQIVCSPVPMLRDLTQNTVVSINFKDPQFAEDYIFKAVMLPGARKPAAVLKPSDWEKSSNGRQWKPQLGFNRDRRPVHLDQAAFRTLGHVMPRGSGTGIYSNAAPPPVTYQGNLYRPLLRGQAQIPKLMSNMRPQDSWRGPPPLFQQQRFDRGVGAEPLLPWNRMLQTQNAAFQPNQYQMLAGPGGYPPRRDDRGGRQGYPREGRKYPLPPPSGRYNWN
UniProt Q96H79: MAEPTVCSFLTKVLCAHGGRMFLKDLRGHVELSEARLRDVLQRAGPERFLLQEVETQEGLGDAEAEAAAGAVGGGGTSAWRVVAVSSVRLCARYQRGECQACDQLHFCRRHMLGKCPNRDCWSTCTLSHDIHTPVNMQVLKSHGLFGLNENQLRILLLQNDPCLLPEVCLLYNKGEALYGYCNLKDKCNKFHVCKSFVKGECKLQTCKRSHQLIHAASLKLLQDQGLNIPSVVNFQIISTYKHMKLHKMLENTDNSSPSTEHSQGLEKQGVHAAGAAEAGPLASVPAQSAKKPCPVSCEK
UniProt O14980, whole entry, looked up: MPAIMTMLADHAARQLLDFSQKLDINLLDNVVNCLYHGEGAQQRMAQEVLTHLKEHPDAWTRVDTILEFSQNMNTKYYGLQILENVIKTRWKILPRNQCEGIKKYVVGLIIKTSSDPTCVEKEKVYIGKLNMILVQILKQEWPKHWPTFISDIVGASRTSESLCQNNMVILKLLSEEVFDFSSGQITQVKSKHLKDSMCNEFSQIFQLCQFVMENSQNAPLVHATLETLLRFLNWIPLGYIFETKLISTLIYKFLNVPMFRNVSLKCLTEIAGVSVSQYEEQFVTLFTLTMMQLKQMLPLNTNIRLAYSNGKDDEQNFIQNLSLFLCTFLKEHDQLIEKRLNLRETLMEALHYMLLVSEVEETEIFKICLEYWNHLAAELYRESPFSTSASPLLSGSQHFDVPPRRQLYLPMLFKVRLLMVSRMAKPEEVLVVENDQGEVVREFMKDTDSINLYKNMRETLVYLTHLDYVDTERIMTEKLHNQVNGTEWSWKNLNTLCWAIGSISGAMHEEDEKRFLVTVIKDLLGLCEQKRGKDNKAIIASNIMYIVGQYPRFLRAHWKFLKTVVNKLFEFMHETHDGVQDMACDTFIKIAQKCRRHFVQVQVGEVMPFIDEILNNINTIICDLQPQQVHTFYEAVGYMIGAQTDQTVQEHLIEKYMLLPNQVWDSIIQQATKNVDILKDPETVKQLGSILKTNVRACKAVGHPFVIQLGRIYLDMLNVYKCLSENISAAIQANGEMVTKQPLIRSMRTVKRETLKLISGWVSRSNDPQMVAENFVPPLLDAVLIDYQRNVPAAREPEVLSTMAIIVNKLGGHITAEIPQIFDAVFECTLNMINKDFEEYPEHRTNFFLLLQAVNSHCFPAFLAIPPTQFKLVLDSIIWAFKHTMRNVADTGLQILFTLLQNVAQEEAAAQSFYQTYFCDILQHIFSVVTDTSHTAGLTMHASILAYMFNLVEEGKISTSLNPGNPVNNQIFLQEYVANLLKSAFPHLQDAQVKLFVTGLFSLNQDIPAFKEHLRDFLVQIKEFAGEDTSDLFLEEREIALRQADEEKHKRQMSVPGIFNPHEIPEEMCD
UniProt P13010: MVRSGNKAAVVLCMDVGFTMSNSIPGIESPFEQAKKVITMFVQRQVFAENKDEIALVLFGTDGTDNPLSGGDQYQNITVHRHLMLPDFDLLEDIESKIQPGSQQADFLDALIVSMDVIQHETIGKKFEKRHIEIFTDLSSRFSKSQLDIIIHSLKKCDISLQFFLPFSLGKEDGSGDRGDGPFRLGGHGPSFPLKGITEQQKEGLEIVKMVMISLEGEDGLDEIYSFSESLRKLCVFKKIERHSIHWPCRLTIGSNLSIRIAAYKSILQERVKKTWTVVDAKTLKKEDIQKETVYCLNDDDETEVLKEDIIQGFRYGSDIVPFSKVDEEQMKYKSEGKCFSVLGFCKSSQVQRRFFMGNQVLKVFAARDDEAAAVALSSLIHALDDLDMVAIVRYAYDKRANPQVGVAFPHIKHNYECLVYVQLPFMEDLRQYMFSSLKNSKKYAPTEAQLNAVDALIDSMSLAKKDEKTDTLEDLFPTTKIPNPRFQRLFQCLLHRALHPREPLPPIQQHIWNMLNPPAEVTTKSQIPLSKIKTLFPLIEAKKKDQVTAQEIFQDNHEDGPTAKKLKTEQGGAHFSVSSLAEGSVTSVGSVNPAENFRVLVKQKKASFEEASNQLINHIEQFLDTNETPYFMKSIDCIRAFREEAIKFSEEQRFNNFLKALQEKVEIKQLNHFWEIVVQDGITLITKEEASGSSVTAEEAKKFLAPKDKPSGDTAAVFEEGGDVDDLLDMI
UniProt Q8IWR0: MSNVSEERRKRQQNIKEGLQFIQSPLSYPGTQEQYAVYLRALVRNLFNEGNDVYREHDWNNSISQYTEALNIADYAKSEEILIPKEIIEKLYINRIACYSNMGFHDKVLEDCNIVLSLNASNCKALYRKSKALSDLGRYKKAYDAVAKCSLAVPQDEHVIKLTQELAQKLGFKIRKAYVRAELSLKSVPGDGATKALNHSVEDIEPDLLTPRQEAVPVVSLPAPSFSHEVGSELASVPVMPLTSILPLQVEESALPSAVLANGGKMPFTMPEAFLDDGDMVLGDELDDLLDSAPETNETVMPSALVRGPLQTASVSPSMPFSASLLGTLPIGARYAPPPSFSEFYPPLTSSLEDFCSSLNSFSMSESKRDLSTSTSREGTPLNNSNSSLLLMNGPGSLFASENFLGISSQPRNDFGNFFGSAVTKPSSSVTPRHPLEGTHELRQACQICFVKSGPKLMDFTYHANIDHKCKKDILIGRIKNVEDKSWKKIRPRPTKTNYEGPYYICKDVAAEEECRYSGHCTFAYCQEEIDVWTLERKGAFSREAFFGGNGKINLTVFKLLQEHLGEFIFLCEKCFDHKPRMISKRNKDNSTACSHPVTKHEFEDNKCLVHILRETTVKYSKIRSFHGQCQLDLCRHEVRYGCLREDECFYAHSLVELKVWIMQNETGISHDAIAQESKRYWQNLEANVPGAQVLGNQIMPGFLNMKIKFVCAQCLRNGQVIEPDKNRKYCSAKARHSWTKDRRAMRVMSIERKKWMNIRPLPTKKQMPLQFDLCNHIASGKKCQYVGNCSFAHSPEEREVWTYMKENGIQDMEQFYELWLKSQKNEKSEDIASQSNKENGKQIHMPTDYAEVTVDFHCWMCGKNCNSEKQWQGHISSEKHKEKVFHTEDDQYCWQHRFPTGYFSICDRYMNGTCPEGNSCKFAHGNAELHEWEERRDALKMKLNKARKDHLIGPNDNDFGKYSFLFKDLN
UniProt Q9NUD5: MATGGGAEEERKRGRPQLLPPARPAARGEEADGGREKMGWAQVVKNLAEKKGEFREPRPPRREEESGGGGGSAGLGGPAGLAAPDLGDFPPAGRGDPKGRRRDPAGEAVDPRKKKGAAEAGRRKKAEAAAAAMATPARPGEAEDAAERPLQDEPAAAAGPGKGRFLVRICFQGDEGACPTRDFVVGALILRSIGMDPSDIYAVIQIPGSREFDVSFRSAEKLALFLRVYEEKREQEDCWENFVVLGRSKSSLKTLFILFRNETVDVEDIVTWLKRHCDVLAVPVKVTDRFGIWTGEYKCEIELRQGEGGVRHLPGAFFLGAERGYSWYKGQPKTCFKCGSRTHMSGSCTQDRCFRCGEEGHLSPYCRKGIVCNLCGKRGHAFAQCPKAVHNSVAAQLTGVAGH

Compound in the assay: CC1Cc2ccccc2N1C(=O)C1CCCN(C1)C(=O)CCl (mixture of isomers) [TRIM25 ligand 11 (diastereomer mixture)]
Briefly: probe-labelled cysteine peptide fold change vs DMSO (competition) (log2 fold change); higher = less target engagement (more negative = stronger competition). Conditions: THP-1, incubation time: 4 h.

This is one part of the list.
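Further: competitive chemoproteomic profiling in live THP-1 cells with an iodoacetamide desthiobiotin (IA-DTB) probe, comparing probe-labelled peptide intensities in compound-treated cells against DMSO-treated controls.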

Regarding “ZBTB1_Q9Y2K1_532_HSACPFR (UniProt Q9Y2K1)”, the “probe-labelled cysteine peptide fold change” value was -0.06 (10 µM) and 0.0188 (50 µM).
For “ZC3H11A_O75152_588_SVLTPLRGDVASCNTQVAEK (UniProt O75152)” the same measures were -0.116 and -0.0987.
For “ZFAND1_Q8TCF1_217_LCHITSGEALPLDHTLETWIAK (UniProt Q8TCF1)” the same measures were -0.0403 and -0.0232.
On the same counts, the results for “YWHAE_P62258_97_LICCDILDVLDK (UniProt P62258)” are -0.154 and 0.0438.
Turning to “XXYLT1_Q8NBI6_386_IYHGNCNTPIPED (UniProt Q8NBI6)”, the “probe-labelled cysteine peptide fold change” value is -0.0662 (10 µM) and 0.0223 (50 µM).
As to “XRCC3_O43542_86_LSLGCPVLDALLR (UniProt O43542)”, the “probe-labelled cysteine peptide fold change” value (10 µM) came out at 0.151 and the “probe-labelled cysteine peptide fold change” value (50 µM) was -0.112.
Consider “ZFAND1_Q8TCF1_10_AELDIGQHCQVEHCR (UniProt Q8TCF1)”, for which the “probe-labelled cysteine peptide fold change” value is -0.0243 (10 µM) and 0.207 (50 µM).
On the same counts, the results for “XPO5_Q9HAV4_847_FFSTLYENCFHILGK (UniProt Q9HAV4)” are 0.0439 and 0.121.
For the target “YDJC_A8MPS7_294_AQLAQDGVQLCALDDLDSK (UniProt A8MPS7)”, the “probe-labelled cysteine peptide fold change” value is 0.0361 (10 µM) and -0.222 (50 µM).
For the target “XRN2_Q9H0D6_21_KYPSIIVNCVEEK (UniProt Q9H0D6)”, the “probe-labelled cysteine peptide fold change” value by setting is: (10 µM) 0.181; (50 µM) 0.353.
On the same counts, the results for “ZC3HAV1L_Q96H79_163_ILLLQNDPCLLPEVCLLYNK (UniProt Q96H79)” are -0.172 and 0.0584.
Turning to “ZC3H11A_O75152_588_GDVASCNTQVAEKPVLTAVPGITR (UniProt O75152)”, the “probe-labelled cysteine peptide fold change” value (10 µM) is -0.141 and the “probe-labelled cysteine peptide fold change” value (50 µM) was -0.211.
For “ZC3H10_Q96K80_140_EEVPICR (UniProt Q96K80)” the same measures were 0.122 and 0.208.
For “YME1L1_Q96TA2_433_ANAPCVIFIDELDSVGGKR (UniProt Q96TA2)” the same measures were -0.109 and -0.361.
As for “XPO1_O14980_1070_QMSVPGIFNPHEIPEEMCD (UniProt O14980)”, the “probe-labelled cysteine peptide fold change” value by setting is: (10 µM) -0.174; (50 µM) -0.397.
For “YJU2_Q9BW85_83_CLAEITFK (UniProt Q9BW85)” the same measures were -0.00218 and 0.229.
On the same counts, the results for “XPNPEP1_Q9NQW7_46_NSEYVTEPIQAYIIPSGDAHQSEYIAPCDCRR (UniProt Q9NQW7)” are 0.362 and -0.0759.
With “ZC3HAV1L_Q96H79_7_AEPTVCSFLTK (UniProt Q96H79)”, the “probe-labelled cysteine peptide fold change” value (10 µM) came out at 0.0178 and the “probe-labelled cysteine peptide fold change” value (50 µM) came to 0.147.
For “XRN1_Q8IZH2_1104_PHLLYRPLEQQHGVIPDRDAEFCLFDR (UniProt Q8IZH2)”, the “probe-labelled cysteine peptide fold change” value was -0.0497 (10 µM) and 0.131 (50 µM).
On the same counts, the results for “ZBTB11_O95625_214_LSNQFCDVTLLIEGEEYK (UniProt O95625)” are 0.0844 and 0.161.
On the same counts, the results for “YWHAE_P62258_98_LICCDILDVLDK (UniProt P62258)” are 0.0119 and 0.103.
On the same counts, the results for “XRCC5_P13010_296_ETVYCLNDDDETEVLK (UniProt P13010)” are 0.12 and 0.087.
As to “ZC3H7A_Q8IWR0_98_IACYSNMGFHDK (UniProt Q8IWR0)”, the “probe-labelled cysteine peptide fold change” value is, setting by setting: (10 µM) -0.0854; (50 µM) -0.0318.
Consider “XPO4_Q9C0E2_439_GFFTQHAVQVFNSYIQCHLAAPDGTR (UniProt Q9C0E2)”, for which the “probe-labelled cysteine peptide fold change” value is -0.314 (10 µM) and -0.144 (50 µM).
On the same counts, the results for “ZBTB33_Q86T24_32_GHGLFCDVTVIVEDR (UniProt Q86T24)” are 0.256 and 0.0892.
For “ZDHHC6_Q9H6R6_295_EGCHQYSLTIEQLK (UniProt Q9H6R6)” the same measures were 0.124 and -0.0875.
On the same counts, the results for “XPO6_Q96QU8_723_AQVLVCR (UniProt Q96QU8)” are -0.0282 and 0.134.
For “YDJC_A8MPS7_119_EAVAAGDVDLPQVREELEAQLSCFR (UniProt A8MPS7)”, the “probe-labelled cysteine peptide fold change” value runs as follows: (10 µM) 0.457; (50 µM) 0.114.
“XPNPEP1_Q9NQW7_582+592_ECDWLNNYHLTCR (UniProt Q9NQW7)”: the “probe-labelled cysteine peptide fold change” value is 0.00244 (10 µM) and -0.126 (50 µM).
On the same counts, the results for “YDJC_A8MPS7_18_LVVTADDFGYCPR (UniProt A8MPS7)” are -0.0312 and 0.0877.
In the case of “ZC3H12D_A2A288_266_CTYGIK (UniProt A2A288)”, the “probe-labelled cysteine peptide fold change” value amounted to 0.0719 (10 µM) and 0.0733 (50 µM).
For “ZCCHC3_Q9NUD5_178_ICFQGDEGACPTR (UniProt Q9NUD5)” the same measures were 0.0949 and 0.145.
As for “XRCC5_P13010_157_KCDISLQFFLPFSLGKEDGSGDRGDGPFR (UniProt P13010)”, the “probe-labelled cysteine peptide fold change” value (10 µM) was -0.432 and the “probe-labelled cysteine peptide fold change” value (50 µM) is -0.174.
